Test results from PMC11331657.
Results are given in words; binding and its absence hold for the method and conditions named. Binding seen in cells or lysates may run through a third protein. Some entries that bind do so weakly or less than the wild type.

Amino acid sequences for entries named in this document (tags omitted). A change or cut given only in a name is not applied to a line headed by its entry.
UniProt P48432: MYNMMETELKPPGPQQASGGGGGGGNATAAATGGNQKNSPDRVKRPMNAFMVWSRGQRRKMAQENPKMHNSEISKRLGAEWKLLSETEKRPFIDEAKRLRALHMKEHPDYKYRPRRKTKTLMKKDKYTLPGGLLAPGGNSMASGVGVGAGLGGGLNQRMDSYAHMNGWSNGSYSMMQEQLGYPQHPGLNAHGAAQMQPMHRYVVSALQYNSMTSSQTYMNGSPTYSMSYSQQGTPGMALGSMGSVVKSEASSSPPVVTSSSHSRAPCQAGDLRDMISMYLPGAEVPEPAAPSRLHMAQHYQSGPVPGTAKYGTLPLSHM
UniProt Q9QWV9: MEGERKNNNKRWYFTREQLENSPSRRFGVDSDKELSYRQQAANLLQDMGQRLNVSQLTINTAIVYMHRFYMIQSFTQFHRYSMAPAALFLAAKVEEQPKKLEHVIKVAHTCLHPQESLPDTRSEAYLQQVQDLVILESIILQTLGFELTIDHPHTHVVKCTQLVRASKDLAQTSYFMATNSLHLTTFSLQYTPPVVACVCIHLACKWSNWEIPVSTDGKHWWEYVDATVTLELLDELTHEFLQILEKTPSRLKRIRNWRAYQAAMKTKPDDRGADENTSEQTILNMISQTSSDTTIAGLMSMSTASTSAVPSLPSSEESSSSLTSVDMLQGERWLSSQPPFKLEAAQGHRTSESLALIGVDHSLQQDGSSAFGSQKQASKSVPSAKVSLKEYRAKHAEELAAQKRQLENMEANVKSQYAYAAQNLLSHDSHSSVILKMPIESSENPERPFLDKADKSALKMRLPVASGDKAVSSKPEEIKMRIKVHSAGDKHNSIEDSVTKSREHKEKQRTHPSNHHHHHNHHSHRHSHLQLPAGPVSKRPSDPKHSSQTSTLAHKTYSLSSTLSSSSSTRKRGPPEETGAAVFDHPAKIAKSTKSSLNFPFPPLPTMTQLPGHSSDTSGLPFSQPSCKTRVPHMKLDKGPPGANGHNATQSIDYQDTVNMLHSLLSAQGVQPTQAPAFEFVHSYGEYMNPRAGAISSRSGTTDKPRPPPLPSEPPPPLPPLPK

Assays:
[1] = biological target: SOX2 (endogenous, E14 mouse embryonic stem cells) (mouse (endogenous in E14 ESCs)) (UniProt P48432); test: co-IP; endogenous SOX2 immunoprecipitated with anti-SOX2 antibody (IgG as control) from E14 ESC whole cell lysate, Protein A/G magnetic beads, 4 °C, 150 mM NaCl, Western blot
[2] = biological target: His-tagged hnRNPK (mouse) (UniProt P61979); test: pull-down; His-hnRNPK (or His) coupled with Ni-NTA agarose beads, incubated with E. coli lysates expressing GST-SOX2 or its derivates; Western blot with anti-His and anti-GST; only the target purified
[3] = biological target: Flag-tagged CYCLINT1 (expressed in E. coli) (mouse) (UniProt Q9QWV9); test: co-IP; whole cell lysates of E. coli expressing HA-SOX2 and/or Flag-CYCLINT1 immunoprecipitated with anti-Flag antibody; blotted with anti-HA and anti-Flag

Substance | binding [1] | binding [2] | also measured
CYCLINT1 (endogenous, E14 mouse embryonic stem cells) (from UniProt Q9QWV9 1-724) | binds |  | 
GST-tagged SOX2-HMG (40–119, containing the HMG domain) (from UniProt P48432 40-119) (domain or fragment) |  | binds | 
HA-tagged SOX2 (expressed in E. coli) (from UniProt P48432 1-319) |  |  | binding [3]: binds
glutathione-S-transferase (GST)-tagged SOX2 (from UniProt P48432 1-319) |  | binds | 
heterogeneous nuclear ribonucleoprotein K (endogenous, E14 mouse embryonic stem cells) (from UniProt P61979 1-463) | binds |  | 
